Key:
Lipid peroxidation (MDA) = assay: Lipid peroxidation (LPO) assay in brain homogenate; settings: 5 mg/kg p.o., scopolamine mice, mean
[1] = system: Reduced glutathione (GSH); assay: Estimation of reduced glutathione (GSH) in brain homogenate; settings: 5 mg/kg p.o., scopolamine mice, mean
[2] = system: scopolamine induced memory impairment in male Swiss albino mice; assay: Novel object recognition test (NORT), scopolamine induced memory impairment; settings: 5 mg/kg p.o., scopolamine 1 mg/kg i.p.; for NORT (Recognition Index): mean; for NORT (Discrimination Index): mean (SEM in next line)

COc1cc2c(cc1OC)C(=O)C(CC1CCN(Cc3ccccc3)CC1)C2 (stereo not shown) [Donepezil]
Lipid Peroxidation (Lipid peroxidation (MDA)): 1798.77 μmol MDA/mg of protein | Reduced Glutathione [1]: 68.17 μmol/mg of protein | Reduced Glutathione ([1]; listed as donepezil): increasing trend in GSH levels but there was no statistical significance observed | NORT (Recognition Index) [2]: 0.513 | NORT (Discrimination Index) [2]: 0.025 | NORT (Discrimination Index) ([2]; listed as donepezil): significantly (P<0.01) improved | NORT (Recognition Index) ([2]; listed as donepezil): significantly (P<0.01) improved
